The text below walks through data of PubChem BioAssay AID1458 (National Center for Advancing Translational Sciences (NCATS), 2008).

Hit rate of the full screen: of about 210,000 compounds, about 5,900 (2.8%) were called active. Another 5% or so got no clear call; they are omitted. The call rests on the fitted dose curve; in most records, active means well fitted activation curve with a large enough effect; inconclusive means small, poorly fitted or top-dose-only effect; inactive means no such curve, though single readings can be large or run the other way. The entries are a selection whose mix differs from that of the whole data set. The source gives no active or inactive call for entries shown without one.
Potency means the concentration at half of the fitted maximal effect.

The test in a line: qHTS Assay for Enhancers of SMN2 Splice Variant Expression. Further: nearly all actives have a fitted effect of over 55% in size. On activity change, positive = activation: % of control where 0% means no effect. Particulars: HEK293 SMN2-luciferase splicing reporter, luminescence, 30-36 h; activity change, positive = activation: at 46.1 µM (top of the series) unless noted. In outline:
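HEK293 cells carry an SMN2 […]–luciferase reporter in which exon 7 inclusion puts luciferase in frame. Cells were plated 10-12 h before compound addition, then incubated 30-36 h at 37C. ONE-Glo luminescence was read; sodium butyrate at 4.5 mM final served as control.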
Turning to `NNc1nc2c(-c3ccc(Cl)cc3)nnn2c2ccccc12`, the Potency was active: 12.6 µM.

For `CN(CC(=O)Nc1ccccc1Sc1ccccc1)Cc1nc2ccccc2c(=O)[nH]1`, the activity change, positive = activation was -37.5%.

As to `O=C(Nc1ccc2nc3n(c(=O)c2c1)CCCCC3)c1ccccc1Cl`, the activity change, positive = activation is -24.8%.

In the case of `CCN(CCC(=O)O)c1ccccc1`, the activity change, positive = activation stood at 34.2%.

For `Cc1[nH]nc(SCC(=O)N2CCCCC2)c1[N+](=O)[O-]`, the activity change, positive = activation stood at 52.9%.

For the molecule `Cc1cc(C)nc(SCc2ccc(C(=O)NNC(=O)Nc3cccc(Cl)c3)cc2)n1`, the activity change, positive = activation was -112%.

Take `O=C(COc1ccccc1Cl)Nc1ccc2c(c1)OCCO2`: the activity change, positive = activation turned out to be 41.8%.

As for `CCc1cccc(C)c1NC(=O)c1ccc(CN2CCc3ccccc3C2)cc1`, the activity change, positive = activation is -43.9%.

`c1ccc(-n2ncc3c(NCc4cccs4)ncnc32)cc1`: the Potency was active: 11.2 µM.

With `CCc1nnc(NC(=O)Cc2ccc(OC)cc2)s1`, the activity change, positive = activation worked out at 49.7%.

As to `CCC(CC)C(=O)N1CCN(c2cccc(C)c2C)CC1`, the activity change, positive = activation is -62.4%.

As for `O=C(Nc1ccc(OC(F)(F)F)cc1)C(Cc1ccccc1)NS(=O)(=O)c1cccc2nsnc12` (configuration not stated), the “activity change, positive = activation” value is inactive: -30.9%.

Turning to `c1ccc(CSCc2cn3ccsc3n2)cc1`, the Potency was active: 12.6 µM.

Take `CCn1c(C)nc2cc(C(=O)N/N=C/c3ccccc3)ccc21`: the Potency is active: 17.8 µM.

In the case of `COCC(=O)N1CCC2(CC1)CN(c1ccc(-c3ccccc3)cc1)C2`, the “activity change, positive = activation” value is inactive: -44.5%.

With `Cc1ccc(Cc2cnc(NC(=O)CN3CCOCC3)s2)cc1Cl`, the activity change, positive = activation was -52.1%.

As to `Cn1nc(/C=C/c2ccccc2)ccc1=O`, the Potency is active: 12.6 µM.

Consider `O=C(CN1C(=O)c2cccc3cccc1c23)N1CCN(c2cccc(Cl)c2)CC1`, for which the activity change, positive = activation was 40.4%.

Regarding `CC(Oc1ccccc1)C(=O)Nc1ccccc1F` (configuration not stated), the activity change, positive = activation was 35.5%.

Turning to `O=C(Nc1ccc(N2CCN(c3ccc(O)cc3)CC2)cc1)Oc1ccccc1`, the activity change, positive = activation came out at 37.5%.

`CSc1nc(NC(C)C)nc(N2CCOCC2)n1`: the activity change, positive = activation was 28.2%.

Consider `O=c1c(Br)c(Br)cnn1-c1ccccc1`, for which the “activity change, positive = activation” value is inactive: -104%.

As to `O=C(CSc1nnc(NC(=O)Cc2ccc(F)cc2)s1)NCc1ccco1`, the activity change, positive = activation stood at 36.4%.

In the case of `COc1ccc(CCNC(=O)c2cc(-c3ccco3)on2)cc1OC`, the “activity change, positive = activation” value was inactive: -29%.

For `CN1CCN(C2=C(Cl)C(=O)N(CCc3ccccc3)C2=O)CC1`, the Potency is active: 12.6 µM.

With `CCCCNc1ccc(C(=O)OCCN(C)C)cc1`, the activity change, positive = activation was -30.9%.

Consider `Cc1ccn2c(CN3CCOCC3)c(-c3ccccc3)nc2c1`, for which the Potency was active: 20 µM.

On to `Cc1ccc(-n2c(Cn3c(C)nc4ccccc43)n[nH]c2=S)cc1`, for which the activity change, positive = activation was 14%.

`Nc1nc(NC(=O)C(Cl)(Cl)Cl)nn1-c1ccccc1`: the activity change, positive = activation amounted to 5.61%.

Take `Cc1ccccc1C(=O)NCc1nnc(SCC(=O)N2CCN(c3ccccc3)CC2)n1C`: the activity change, positive = activation is -33.4%.

For `Cc1cc(C(=O)N/N=C/c2cc([N+](=O)[O-])cc(C)c2O)n[nH]1`, the activity change, positive = activation is -86.1%.

Take `CCCNC(=O)c1noc2c1CCc1ccccc1-2`: the Potency was active: 15.8 µM.

Consider `O=C(NCCc1nc2ccccc2[nH]1)/C(=C/c1ccco1)NC(=O)c1ccco1`, for which the activity change, positive = activation worked out at 17.9%.

Regarding `Cc1ccc(NS(=O)(=O)c2cc(C(=O)Nc3cccc([N+](=O)[O-])c3)ccc2C)cc1`, the activity change, positive = activation was -41.1%.

For `C=CCn1c(N)c(C(=O)N2CCOCC2)sc1=S`, the activity change, positive = activation came out at 17.6%.

For `CC(C)CN(CC(C)C)S(=O)(=O)N1CCC(C(=O)NCc2ccc3c(c2)OCO3)CC1`, the “activity change, positive = activation” value was inactive: -20.6%.

Regarding `CC(OC(=O)C1CCN(S(=O)(=O)c2ccccc2)CC1)C(=O)Nc1ncc(Cl)cc1Cl` (configuration not stated), the activity change, positive = activation came to 37.3%.

Consider `COCCn1c(N)c(S(=O)(=O)c2cccs2)c2nc3ccccc3nc21`, for which the activity change, positive = activation was 31.9%.

With `Cc1ccc(CNc2nc3ccccc3n3nnnc23)cc1`, the activity change, positive = activation worked out at 46.9%.

In the case of `Cc1cccc(N2CCN(C(=O)C34CC5CC(CC(C5)C3)C4)CC2)c1C`, the activity change, positive = activation worked out at 34.1%.

Take `Cc1noc(C)c1CSCC(=O)N1CCN(c2ccc([N+](=O)[O-])cc2)CC1`: the “activity change, positive = activation” value is inactive: -83.2%.

As to `CC(C)=CCC1=C(O)c2ccccc2C(=O)C1=O`, the Potency is active: 3.98 µM.

For `COc1ccc(N(Cc2ccccc2)C(=O)c2nc(S(C)(=O)=O)ncc2Cl)cc1`, the “activity change, positive = activation” value is inactive: -96.5%.

In the case of `COC(=O)c1ccccc1NC(=O)Nc1cnccn1`, the activity change, positive = activation is 36.7%.

With `CC(Cc1ccc(O)c(O)c1)(NN)C(=O)O` (configuration not stated), the “activity change, positive = activation” value is inactive: -1.01%.

With `O=C(NC(=S)Nc1ccc(N2CCOCC2)cc1)c1ccco1`, the Potency was active: 15.8 µM.

`COc1ccc(OC)c(-c2[nH]nc3c2C(c2ccco2)C(C#N)=C(N)O3)c1` (configuration not stated): the activity change, positive = activation is 37.7%.

With `CCC1=Nc2cc(C(=O)NCCc3ccc(OC)c(OC)c3)ccc2Sc2ccccc21`, the “activity change, positive = activation” value is inactive: -39.5%.

Take `CC(=O)Nc1ccc(N/C=C/C(=O)c2ccco2)cc1`: the Potency is active: 28.2 µM.

In the case of `COCCn1c(CN2CCN(c3cccc(Cl)c3)CC2)nc2c1c(=O)n(C)c(=O)n2C`, the “activity change, positive = activation” value is inactive: -60.2%.

For the molecule `COc1cccc(C(=O)Nc2cc(C)on2)c1OC`, the activity change, positive = activation was 50.5%.

For the molecule `Cc1onc(NC(=O)c2ccc(Cl)cc2Cl)c1Br`, the activity change, positive = activation stood at 148%.

In the case of `Cn1cccc1/C=N/NC(=O)Cc1cccc2ccccc12`, the “activity change, positive = activation” value is inactive: -49.8%.

For the molecule `CCc1nn(CC(=O)N2CCC(C)CC2)c(=O)c2cc3occc3n12`, the activity change, positive = activation came to 24.9%.

Turning to `c1ccc(-n2ncc3c(NCc4ccco4)ncnc32)cc1`, the activity change, positive = activation is 37.8%.

In the case of `O=C(c1cccs1)N(c1ccc(Br)cc1)C1C=CS(=O)(=O)C1` (configuration not stated), the “activity change, positive = activation” value was inactive: 7.55%.

As for `COC(=O)c1ccccc1NC(=O)NCc1c(C)nn(C)c1C`, the activity change, positive = activation was -41.5%.
